The record followed here is patent publication US20150031572A1, “MEANS AND METHODS FOR ASSESSING NEURONAL TOXICITY” (priority 2012, published 2015).

This data set in a line: Plasma metabolite profiling (GC-MS, LC-MS, SPE-LC-MS) of rats dosed once daily over 28 days; treatment ratios versus untreated control. The class given is in vivo, rat. Conditions: male rats, high dose. The method, then: A group of each 5 male and female rats was dosed once daily with the indicated compounds (see Table 10, below for compounds, applied doses and administration details) over 28 days.
Each dose group in the studies consisted of five rats per sex. Additional groups of each 5 male and female animals served as controls. Before starting the treatment period, animals, which were 62-64 days old when supplied, were acclimatized to the housing and environmental conditions for 7 days. All animals of the animal population were kept under the same constant temperature (20-24±3° C.) and the same constant humidity (30-70%). The animals of the animal population were fed ad libitum. The food to be used was essentially free of chemical or microbial contaminants. Drinking water was also offered ad libitum. Accordingly, the water was free of chemical and microbial contaminants as laid down in the European Drinking Water Directive 98/83/EG. The illumination period was 12 hours light followed by 12 hours darkness (12 hours light, from 6:00 to 18:00, and 12 hours darkness, from 18:00 to 6:00). […] The test substances (compounds) in the Tables 1 to 9 below were dosed and administered as described in the Table 10 above.
In the morning of day 7, 14, and 28, blood was taken from the retro-orbital venous plexus from fasted anaesthetized animals. From each animal, 1 ml of blood was collected with EDTA as anticoagulant. The samples were centrifuged for generation of plasma. All plasma samples were covered with a N2 atmosphere and then stored at −80° C. until analysis.
For mass spectrometry-based metabolite profiling analyses plasma samples were extracted and a polar and a non-polar (lipid) fraction was obtained. For GC-MS analysis, the non-polar fraction was treated with methanol under acidic conditions to yield the fatty acid methyl esters. Both fractions were further derivatised with O-methyl-hydroxyamine hydrochloride and pyridine to convert Oxogroups to O-methyloximes and subsequently with a silylating agent before analysis. In LC-MS analysis, both fractions were reconstituted in appropriate solvent mixtures. HPLC was performed by gradient elution on reversed phase separation columns. Mass spectrometric detection which allows target and high sensitivity MRM (Multiple Reaction Monitoring) profiling in parallel to a full screen analysis was applied as described in WO2003073464.
Steroids and their metabolites were measured by online SPE-LC-MS (Solid phase extraction-LC-MS).
Following comprehensive analytical validation steps, the data for each analyte were normalized against data from pool samples. These samples were run in parallel through the whole process to account for process variability. The significance of treatment group values specific for sex, treatment duration and metabolite was determined by comparing means of the treated groups to the means of the respective untreated control groups using WELCH-test and quantified with treatment ratios versus control and p-values.
The identification of the most important biomarkers per toxicity pattern was done by a ranking of the analytes in the tables below. Therefore the metabolic changes in reference treatments of a given pattern (shown in the table) were compared with changes of the same metabolite in other unrelated treatments. […] The maximum absolute value of the respective TVALUE was taken to indicate the most important metabolite for the pattern.

For the molecule `Cc1cnc(C(=O)NCCc2ccc(S(=O)(=O)NC(=O)NC3CCCCC3)cc2)cn1` [Glipizide], under “day 7 (m7)”, the “5-Oxoproline, plasma metabolite ratio versus control” value amounted to 0.74; the “Alanine, plasma metabolite ratio versus control” value turned out to be 0.62; the “Arginine (second line of the table), plasma metabolite ratio versus control” value came out at 0.80; the “Arginine, plasma metabolite ratio versus control” value was 0.79. For the same molecule, where the note is “day 7 (m7)”, the “Citrulline, plasma metabolite ratio versus control” value worked out at 0.92; the “Glutamine, plasma metabolite ratio versus control” value was 0.79; the “Proline, plasma metabolite ratio versus control” value is 0.82; the “Tyrosine, plasma metabolite ratio versus control” value amounted to 0.77. Also, for the setting “day 14 (m14)”, the “5-Oxoproline, plasma metabolite ratio versus control” value came out at 0.81; the “Alanine, plasma metabolite ratio versus control” value worked out at 0.68; the “Arginine (second line of the table), plasma metabolite ratio versus control” value was 0.86; the “Arginine, plasma metabolite ratio versus control” value amounted to 0.93. Under “day 14 (m14)”, the “Citrulline, plasma metabolite ratio versus control” value turned out to be 0.85; the “Glutamine, plasma metabolite ratio versus control” value was determined as 0.63; the “Proline, plasma metabolite ratio versus control” value stood at 0.87; the “Tyrosine, plasma metabolite ratio versus control” value worked out at 0.88. Also, where the note is “day 28 (m28)”, the “5-Oxoproline, plasma metabolite ratio versus control” value is 0.78; the “Alanine, plasma metabolite ratio versus control” value is reported as 0.89; the “Arginine (second line of the table), plasma metabolite ratio versus control” value is on record as 0.88; the “Arginine, plasma metabolite ratio versus control” value was determined as 0.88. Under “day 28 (m28)”, the “Citrulline, plasma metabolite ratio versus control” value is on record as 0.96; the “Glutamine, plasma metabolite ratio versus control” value is recorded as 0.85; the “Proline, plasma metabolite ratio versus control” value is on record as 0.90; the “Tyrosine, plasma metabolite ratio versus control” value was found to be 0.85.
